The test has as its target fusion protein of F.X activated peptide (AP) with glutathione S transferase (GST) (human) (UniProt P00742). Nature of the test: Western blotting of GST-AP (E. coli lysate, SDS-PAGE, Immobilon-P membrane), antibody at 2 µg/mL. (In general: In western blotting, separated proteins are transferred to a membrane and probed.)

Amino acid sequences for entries named in this document (tags omitted). Residues count along the entry.
UniProt P00742, residues 183-234: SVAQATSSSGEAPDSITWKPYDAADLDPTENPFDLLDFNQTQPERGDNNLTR

No constants are given. Whether binding was seen depends on the method and setting. Some entries that bind do so weakly or less than the wild type.

B1: anti-F.X mouse antibody SB04 (antibody, V domains shown)
VH: QVQLQQSGPELVKPGASVKMSCKASGYTFTHFVLHWVKQNPGQGLEWIGYIIPYNDGTKYNEKFKGKATLTSDKSSSTAYMELSSLTSEDSAVYYCARGNRYDVGSYAMDYWGQGTSVTVSS
VL: DIVMTQSPSSLAVSVGEKVTMSCKSSQSLLYSSNQKNYLAWYQQKPGQSPKLLIYWASTRESGVPDRFTGSGSGTDFTLTISSVKAEDLAVYLCQQYYRFPYTFGGGTKLEIKR
Turning to B1, the binding entry is given as “binds”.

(Values after patent US20070041978A1.)
